In PubChem BioAssay AID1508600 (Functional Genomics Laboratory (NCATS/FGL), 2020) one finds z-score data, which are given here for 107 sequences.

The campaign covered roughly 53,000 sequences. About 3,700 (7%) were called active.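 The calls were made as follows: active = gene knockdowns whose robust z-score for IL-1 alpha signal is at least 2 or at most -2, so actives lie on both sides; inactive = the rest.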 The list shows a part of the results.

The experiment can be described thus: Components of the Cytosolic LPS Sensing Pathway: Gene Identification via Genome-wide siRNA Screen.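 Also: robust z of the log signal after scaling to non-targeting control siRNA wells of the plate.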 Particulars: RAW264.7 macrophages, IL-1a HTRF, actives lie on both sides, screened at 100 nM (by protocol), cells primed 5 h with Pam3CSK4 first. Put shortly: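 Cells (RAW264.7, 1×10^4 per well) were transfected with siRNA at 100 nM and cultured 48h at 37 degrees C. Pam3CSK4 was added for 5 hours; LipidA transfection followed for 24 hour. IL-1a was then measured by HTRF.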
Background: Time-resolved FRET reads energy transfer from a long-lived donor to a nearby acceptor.
Consider “GGCAAUUAUUCGUGUCUUATT against 4930449I24Rik”, for which the z-score is inactive: -1.26.

Turning to GGACAAUGUAUGGAUCCCATT against Pilra, the z-score was inactive: -0.842.

Consider CCAUACGAACAGACAUUUUTT against Tcn2, for which the z-score was inactive: -0.29.

As to GGGUCCAUGACAAUUCACATT against Rhbg, the z-score is inactive: -0.592.

On to GCUGGUUUACCAAAACAUATT against Gna14, for which the z-score was inactive: 0.698.

With GGAGUGAUCAUCUAUAAUUTT against Rnf133, the z-score is active: 2.12.

On to GGUCGAGAGAAACGGAACUTT against Lrrc3, for which the z-score is inactive: 0.0776.

On to GGAAGGAAGUGGAAAUGAGTT against Tbc1d9b, for which the z-score was inactive: 0.806.

GGCAUUUUUCAUCGAGUCGTT against Pfkfb3: the z-score is inactive: -1.67.

Regarding CCACACUUGCUGAAUACAGTT against Gm9734, the z-score was inactive: 0.139.

Take GGGUAAUUGACUGAGCUCUTT against Cyb5d2: the z-score is inactive: -0.53.

GGCUCAAGAAGAAGAAUGCTT against P2ry1: the z-score is inactive: 0.556.

As for CCAAAACGUGCAACACAAUTT against Cops6, the z-score is inactive: 0.37.

As for GGUGCAUCACCAGAACUCGTT against Ch25h, the z-score is inactive: -0.787.

In the case of GGGUGAAUUUGAUUCGCUGTT against Prr15l, the z-score is inactive: 0.753.

In the case of GGAUGGAAUCAUUUGUAGCTT against Apba3, the z-score was inactive: 1.76.

As to GGCUGCUCAUACGAUUAAUTT against Nek11, the z-score was inactive: -0.0645.

In the case of GGUGAUCUACUACAGGAAUTT against Fcer1a, the z-score was inactive: -0.434.

GCUAAGAAGCAGACUUCAUTT against Washc2: the z-score is inactive: 1.35.

As for CCCUAGUCUCUCUUCAAUCTT against Prss2, the z-score was inactive: 1.04.

In the case of GGGAGAGGCAACCUGUAUCTT against Chchd1, the z-score is inactive: -0.193.

Regarding GGACAUCUUCAUUUACAGATT against Golga4, the z-score is inactive: -0.0101.

Consider GGUUAUCAUCUUGUGAAAATT against Srpk1, for which the z-score is inactive: -0.628.

GGUCAGAAGAGUUUGCUAATT against Sgms2: the z-score is inactive: 0.552.

Take GGUAUGUACUACAAACAAUTT against Pigl: the z-score was inactive: -0.561.

In the case of GGCUUCUUUCUCGGCAAGATT against Ydjc, the z-score was inactive: 1.34.

In the case of GGCAGUAAGGCUCCAAUCUTT against Tcp10a, the z-score was active: -2.1.

Regarding GGAAUACUGAAUUUAAGGATT against Olfr1416, the z-score was inactive: 1.25.

Consider GGCACAUUCAUAGAACAAGTT against Znrd1as, for which the z-score is active: 2.01.

On to GCCUCAACAUGAUCCCGAGTT against Ccdc172, for which the z-score was active: -3.34.

As to GGGAUCAGUGGAGUACUACTT against Ear6, the z-score was inactive: 0.0427.

As to CCCUAGAAUUAUAUCCUGUTT against Col4a1, the z-score is inactive: -0.494.

For GGUCCAUUAUGACGGCAAATT against Zfp385b, the z-score is inactive: -1.67.

In the case of AUACAACAGCACAACUGAUTT against Ces2b, the z-score was inactive: -0.636.

For GGUGGUAACUACUGACAGCTT against Aebp1, the z-score was inactive: 0.388.

Regarding CCUGUAGAUACCUCCCUACTT against Flt1, the z-score was inactive: -1.25.

On to CCUUUGUAUUUGACGUGUATT against Id4, for which the z-score is inactive: 1.08.

For the sequence CCGGAUGCUGGGCUUAGAATT against Nmb, the z-score was inactive: -1.14.

Turning to GGCAAGAUAAGCUAAAUCCTT against Gpr63, the z-score is inactive: -0.822.

As to GGCAAUGGAAGGAAUCUUCTT against Sdf2l1, the z-score is inactive: -0.968.

For the sequence GGCAUGCUAAAAAUAACUGTT against Spcs1, the z-score was inactive: -0.294.

With GCUAACCACCAAACCUUCUTT against Ssc5d, the z-score is inactive: 0.466.

As for GGCAAACCUGCUUCUGCUATT against Prss52, the z-score was inactive: -1.27.

With GGAAGCAAUUUUUUACUCATT against Itm2a, the z-score was inactive: 0.247.

For the sequence UUCAUGUAGGUUUAUUAUUTT against Olfr194, the z-score was inactive: 0.29.

As to GGACCAGCUUUUCAACAUUTT against F8, the z-score was inactive: 0.141.

As for CCGUCUGGUACAACAUGAUTT against Ccdc50, the z-score is inactive: -0.497.

Take CGACUACCUGCUACAUGGCTT against Adipor1: the z-score was inactive: -1.67.

Regarding GGACAUGUUCUCAUUUACATT against Zfp473, the z-score is inactive: -1.23.

Take CCGAACUUUUUCAACAAAGTT against Eif4g2: the z-score was inactive: -0.69.

Consider GGUGCGCUGAGAAAACUGATT against Olfr1402, for which the z-score is inactive: 1.84.

Regarding GGUCCUUGCCACUAAGCCUTT against Gtf2h5, the z-score was inactive: 0.148.

As to GGAGCUCUGGGACAAAUUCTT against Tbx20, the z-score is inactive: 1.34.

As for GCUAAAUCUCAAUGACCACTT against Kcnn3, the z-score is inactive: -0.362.

As to GAAUCUCCAGAACCUAUUUTT against Pln, the z-score is inactive: -0.547.

As for GCUGCAUCGAAAAACUCAGTT against Mycbp2, the z-score was inactive: -0.564.

Turning to CCCUAGUUACCAAUUCCACTT against Olfr293, the z-score is active: 2.61.

In the case of GCAGAAAAUCGCUACCCAGTT against Spice1, the z-score was inactive: -0.338.

With GGGAUCAAUGUGGACAGUUTT against Icosl, the z-score is inactive: 1.02.

Consider GGGAGAGCUGGCUAAAUGATT against Sptbn4, for which the z-score was inactive: -0.956.

Regarding GGUAGAGGAUCUCUCUAAATT against Fbxo44, the z-score was inactive: -0.444.

Regarding “GCUGCUGAUCAGUUCGAUCTT against B230219D22Rik”, the z-score is inactive: 0.947.

Consider GACUGAGCUUCUGUGAUGGTT against Olfr921, for which the z-score is active: -2.5.

As for GCAGGGUUUUUCCAAUAUATT against Asah2, the z-score was inactive: -0.277.

Regarding GGAAAUGGACCUUCAAAUCTT against Ppm1h, the z-score was inactive: -0.22.

On to GCAUCAAGCCUGGAGAUUCTT against Upf3b, for which the z-score was inactive: 0.347.

Turning to GGAAUCCACGACAUGCUAGTT against Pacrg, the z-score was inactive: -0.193.

Regarding GUACAAGCUGUGCAAGGUGTT against Rps4l, the z-score was inactive: 0.0788.

With CGUCAAAGGAGACAGCUUUTT against Rbm15b, the z-score is inactive: 1.56.

As for GGCACAGUGUGGAAAAGUUTT against Cst7, the z-score was inactive: -0.462.

Turning to “CCUGUACGUAUUUACAACUTT against 2410004B18Rik”, the z-score was inactive: -0.0606.

For GGCCUAUUUAACUAUAGUGTT against Anxa13, the z-score is inactive: 0.891.

Turning to GGGUGAUAAAUGUUUGAAUTT against Vmn1r45, the z-score is inactive: 0.338.

Regarding GGUGGAUUUUUUCUAAUACTT against Star, the z-score was inactive: -0.0248.

For the sequence GCCUGAUUCAGAGUAUAAATT against Col14a1, the z-score is inactive: -1.24.

Consider GGCAUUGCGUUGGCGAUGUTT against Coa4, for which the z-score is inactive: 0.00971.

Take GCCUGACUAUGCUAAAGCUTT against Cyp4b1: the z-score is inactive: 0.0527.

Consider GGUACUAGGUCUGAGGGAGTT against Rdh16, for which the z-score was inactive: 0.741.

Consider GGUCUGCUGUUCAAAAUCATT against Marchf10, for which the z-score was inactive: 0.235.

In the case of GGGUAUCUGAUUUAUAAGCTT against Mageh1, the z-score is inactive: -0.371.

Consider GGCUAAACCAACCUCGUGCTT against Cisd1, for which the z-score was inactive: 0.572.

With GGCUCUCAAAACUUGCUGUTT against Utp18, the z-score is inactive: -0.307.

With GGUCAGCAAUGGAAGUAAUTT against Onecut1, the z-score was inactive: -0.189.

In the case of CCUCAGAUUUCAACCAUAGTT against Bhlhb9, the z-score is inactive: -1.24.

In the case of AGUAUACUGGUUUCAUAACTT against Rexo5, the z-score is inactive: 0.712.

GGCAAGCACUCUUUAGACATT against Cd2bp2: the z-score is inactive: 0.252.

For the sequence GGUAAAUUCCUUAACUCACTT against Utrn, the z-score was inactive: 0.141.

Turning to CGAAAAAACAUCAGACCCATT against Sulf1, the z-score was inactive: -0.105.

As for GGAAUUUCAGCCAGUUUCUTT against Sox5, the z-score is inactive: -0.216.

Consider GGACCAUAGACAGAGAUUATT against Grk5, for which the z-score is inactive: 1.13.

Consider GCGAUUUCCAUGUGAAUUCTT against Zfp462, for which the z-score was inactive: 0.276.

Regarding GGAACUGAACCACUUCAAATT against Ly6m, the z-score was inactive: 0.127.

On to GGACUCUUCUUGGUGAUGUTT against Slc22a18, for which the z-score was inactive: -0.534.

For the sequence GGAAAUGGAUGAAAUGAAUTT against Acrbp, the z-score is inactive: -1.63.

As for GCUCUACUGCAUCAUUUUATT against Apobec1, the z-score is inactive: 0.279.

As to GGGAAGAAGGUUAGCUAAUTT against Trpc6, the z-score was inactive: 0.34.

On to GGAGUUUUUGGGUAACCUGTT against Mfge8, for which the z-score was inactive: 1.35.

For the sequence GGCCAGGUAUAAAUAUAUATT against Dusp8, the z-score is active: 4.51.

Take GGAAUGAGGAAAGAGGAGATT against Rgs17: the z-score was inactive: -0.613.

Consider GGAGGAGAAGAAACACCUGTT against Klc1, for which the z-score is inactive: -1.73.

Regarding “GGUGCCAACUUAGAGAGCGTT against E430018J23Rik”, the z-score is inactive: 0.25.

Consider GGGUCACGCAUCCUAAGAATT against Blvrb, for which the z-score is inactive: 0.32.

As for GGAAACCUGCUCAUUGUCGTT against Olfr1233, the z-score was inactive: -0.874.

For the sequence GGAAAAUCGGUUAUCAUAATT against Pde7a, the z-score was inactive: -0.684.

With GGCUGUGUUCUCAAACAGCTT against St6gal1, the z-score is inactive: -0.165.

GGUGCUUUGUUAUCCAUAATT against Tnfrsf26: the z-score was active: -2.72.

Consider GGGCAAGAUGAAGAGGAUUTT against Ptdss2, for which the z-score is inactive: 0.215.
